In the supplement of paper PMC3682954:
Values joined by “and” are separate entries in the source; they are usually repeats but may differ in a detail not shown here. Equal entries are not always repeated. Structures can show the parent of a compound that is named as a salt. ± gives the standard deviation of the averaged measurements. The list shows a part of the results. Repeats are few or missing, and single values can be far off.

System: RAW 264.7
Test: HMGB1-induced TNF-alpha production relative to HMGB1-stimulated control; higher = more TNF-alpha secretion (less inhibition)
Conditions: stimulus: HMGB1 5 ug/ml, 18 h
[1] = compound concentration: 1 ug/ml

Row | Structure (SMILES) | HMGB1-induced TNF-alpha production [1] [%] | HMGB1-induced TNF-alpha production (compound concentration: 3 uM)
1 | C=C1CC/C=C(\C)CC[C@@H]2[C@@H]1CC2(C)C [(-)-trans-Caryophyllene] | 90 | –
2 | Cc1c(O)c(=O)n(-c2ccccc2)n1C [Antipyrine, 4-hydroxy] | – | 68.8%
3 | CC(C)OC(=O)C(C)(C)Oc1ccc(C(=O)c2ccc(Cl)cc2)cc1 | – | 81.7%
4 | CC(C)OC(=O)C(C)(C)Oc1ccc(C(=O)c2ccc(Cl)cc2)cc1 [Fenofibrate] | – | 69.1 ± 8.7%
5 | COc1ccccc1-c1oc2ccccc2c(=O)c1O [3-Hydroxy-2'-methoxyflavone] | 69.1 | –
6 | Nc1ncnc2c1ncn2C1OC(COP(=O)(O)O)C(O)C1O (stereo unspecified) [Adenosine 5'-monophosphate monohydrate] | – | 66.1%
7 | CCOC(=O)c1cnc2c(cnn2CC)c1NN=C(C)C [Etazolate] | – | 82%
8 | CCOC(=O)c1cnc2c(cnn2CC)c1NN=C(C)C [Etazolate hydrochloride] | – | 89.3%
9 | CN1CCCN(C(c2ccccc2)c2ccc(Cl)cc2)CC1 (stereo unspecified) [Homochlorcyclizine dihydrochloride] | – | 46.5%
10 | C[C@@H]1C[C@H]2[C@@H]3CCC4=CC(=O)C=C[C@]4(C)[C@@]3(Cl)[C@@H](O)C[C@]2(C)[C@@]1(OC(=O)c1ccco1)C(=O)CCl [Mometasone furoate] | – | 39%
11 | c1coc(CNc2ncnc3[nH]cnc23)c1 [Kinetin hydrochloride] | 62.8 | –
12 | CCOc1ccc2nc(S(N)(=O)=O)sc2c1 | – | 74.9%
13 | O=c1oc2cc(O)ccc2s1 | – | 81.1%
14 | CCCCc1ccc2[nH]c(NC(=O)OC)nc2c1 [Parbendazole] | – | 155%
15 | COc1cc2ncnc(Nc3cccc(Cl)c3)c2cc1OC [Tyrphostin AG 1478] | – | 115%
16 | N#C/C(=C\c1ccc(O)c(O)c1)C(=O)NCCCc1ccccc1 [Tyrphostin AG 555] | – | 144%
17 | C/C(=C\C(=O)OCCCCCCCCC(=O)O)C[C@@H]1OC[C@H](C[C@@H]2O[C@H]2[C@@H](C)[C@H](C)O)[C@@H](O)[C@H]1O | – | 98.8 ± 0.69%
18 | c1ccc(C2CN3CCSC3=N2)cc1 (single isomer, unassigned; (-)) [(-)-Tetramisole hydrochloride] | – | 105%
19 | CN/C(=N\CCSCc1nc[nH]c1C)NC#N [Cimetidine] | – | 93 ± 26%
20 | CN/C(=N\CCSCc1nc[nH]c1C)NC#N | – | 90%
21 | CCc1cccc(CC)c1NC(=O)CN(CC(=O)O)CC(=O)O [Etifenin] | – | 60.1%

Two entries drawn at random from the list so far, as already listed:
Row | Structure (SMILES) | HMGB1-induced TNF-alpha production [1] [%] | HMGB1-induced TNF-alpha production (compound concentration: 3 uM)
11 | c1coc(CNc2ncnc3[nH]cnc23)c1 [Kinetin hydrochloride] | 62.8 | –
12 | CCOc1ccc2nc(S(N)(=O)=O)sc2c1 | – | 74.9%

Next results

Row | Structure (SMILES) | HMGB1-induced TNF-alpha production [1] [%] | HMGB1-induced TNF-alpha production (compound concentration: 3 uM)
22 | O=C(O)c1cc2cc(Cc3cccnc3)ccc2o1 [Furegrelate sodium] | – | 81.2%
23 | Cc1cn([C@H]2CC[C@@H](CO)O2)c(=O)[nH]c1=O [2',3'-Dideoxythymidine] | 80.9 | –
24 | O=C(O)c1cc(/N=N/c2ccc(S(=O)(=O)Nc3ccccn3)cc2)ccc1O | – | 90.8 ± 15%
25 | O=C(O)c1cc(/N=N/c2ccc(S(=O)(=O)Nc3ccccn3)cc2)ccc1O [Sulfasalazine] | – | 67.1 ± 33%
26 | COC(=O)CCCC[C@@H]1SC[C@@H]2NC(=O)N[C@@H]21 [Biotin methyl ester] | 68.6 | –
27 | Cc1ccc(N(CC2=NCCN2)c2cccc(O)c2)cc1 [Phentolamine hydrochloride] | – | 76.6%
28 | Cc1ccc(N(CC2=NCCN2)c2cccc(O)c2)cc1 [Phentolamine mesylate] | – | 105%
29 | Cc1ccc(N(CC2=NCCN2)c2cccc(O)c2)cc1 [Phentolamine] | – | 87.5%
30 | Cc1ccc(N(CC2=NCCN2)c2cccc(O)c2)cc1 | – | 91.1%
31 | NC(N)=NCCCC(N)C(=O)O (stereo not drawn) [D(-)-Arginine] | 81.5 | –
32 | CC(C)(C)c1ccc(/C=C/C(=O)Nc2ccc3c(c2)OCCO3)cc1 | – | 82.7%
33 | O=C(O)c1ccccc1-c1c2cc(I)c(=O)c(I)c-2oc2c(I)c(O)c(I)cc12 | – | 55.1%
34 | CCc1ccc(CCOc2ccc(CC3SC(=O)NC3=O)cc2)nc1 (stereo unspecified) | – | 110% and 97.1%
35 | CCc1ccc(CCOc2ccc(CC3SC(=O)NC3=O)cc2)nc1 (stereo unspecified) [Pioglitazone] | – | 83.1 ± 14%
36 | CC[n+]1c(/C=C/C=C2/N(C)c3ccccc3C2(C)C)sc2ccccc21 | – | 109%
37 | Cc1c(Cl)cccc1Nc1ccccc1C(=O)O | – | 89.1%
38 | Cc1c(Cl)cccc1Nc1ccccc1C(=O)O [Tolfenamic acid] | – | 82.5 ± 20%
39 | CCCSc1ccc2[nH]c(NC(=O)OC)nc2c1 | – | 112%
40 | CCCSc1ccc2[nH]c(NC(=O)OC)nc2c1 [Albendazole] | – | 89.9 ± 4.8%
41 | CO[C@H]1/C=C/O[C@@]2(C)Oc3c(C)c(O)c4c(O)c(c(/C=N/N5CCN(C)CC5)c(O)c4c3C2=O)NC(=O)/C(C)=C\C=C\[C@H](C)[C@H](O)[C@@H](C)[C@@H](O)[C@@H](C)[C@H](OC(C)=O)[C@@H]1C | – | 92.4%
